Source: the supplement of paper PMC10849652
The other results are listed elsewhere or left out. Residues, ends and D or L forms follow the SMILES beside them. *: point of attachment. Cbz = O=C(OCc1ccccc1)*

Protein sequences, listed by entry. Tags and fused reporters are not part of them. Lines headed by an entry give the natural chain unless they say otherwise; changes in a name come on top.
UniProt Q9H3J6: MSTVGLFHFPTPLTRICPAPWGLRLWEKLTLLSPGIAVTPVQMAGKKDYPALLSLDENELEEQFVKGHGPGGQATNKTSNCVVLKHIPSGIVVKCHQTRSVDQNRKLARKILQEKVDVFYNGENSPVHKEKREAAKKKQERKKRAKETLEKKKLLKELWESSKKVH
UniProt Q9NSK7: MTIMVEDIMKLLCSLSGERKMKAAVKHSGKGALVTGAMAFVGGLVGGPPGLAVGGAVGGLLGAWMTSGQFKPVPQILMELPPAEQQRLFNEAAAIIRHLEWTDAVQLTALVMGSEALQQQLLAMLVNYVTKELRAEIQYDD
UniProt Q9BTV7: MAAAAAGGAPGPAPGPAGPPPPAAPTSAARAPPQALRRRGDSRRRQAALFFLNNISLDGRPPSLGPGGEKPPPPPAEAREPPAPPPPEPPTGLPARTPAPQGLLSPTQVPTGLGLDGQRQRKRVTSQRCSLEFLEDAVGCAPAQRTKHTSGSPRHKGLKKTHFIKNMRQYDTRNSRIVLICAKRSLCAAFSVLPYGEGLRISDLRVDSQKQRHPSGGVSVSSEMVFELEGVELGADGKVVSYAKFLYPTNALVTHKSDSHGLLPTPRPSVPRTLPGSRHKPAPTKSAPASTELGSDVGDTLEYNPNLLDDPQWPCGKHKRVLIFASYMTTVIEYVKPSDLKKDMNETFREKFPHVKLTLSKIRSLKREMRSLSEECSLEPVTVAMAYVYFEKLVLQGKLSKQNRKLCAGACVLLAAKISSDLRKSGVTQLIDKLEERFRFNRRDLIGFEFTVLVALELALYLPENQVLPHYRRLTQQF
UniProt Q06187: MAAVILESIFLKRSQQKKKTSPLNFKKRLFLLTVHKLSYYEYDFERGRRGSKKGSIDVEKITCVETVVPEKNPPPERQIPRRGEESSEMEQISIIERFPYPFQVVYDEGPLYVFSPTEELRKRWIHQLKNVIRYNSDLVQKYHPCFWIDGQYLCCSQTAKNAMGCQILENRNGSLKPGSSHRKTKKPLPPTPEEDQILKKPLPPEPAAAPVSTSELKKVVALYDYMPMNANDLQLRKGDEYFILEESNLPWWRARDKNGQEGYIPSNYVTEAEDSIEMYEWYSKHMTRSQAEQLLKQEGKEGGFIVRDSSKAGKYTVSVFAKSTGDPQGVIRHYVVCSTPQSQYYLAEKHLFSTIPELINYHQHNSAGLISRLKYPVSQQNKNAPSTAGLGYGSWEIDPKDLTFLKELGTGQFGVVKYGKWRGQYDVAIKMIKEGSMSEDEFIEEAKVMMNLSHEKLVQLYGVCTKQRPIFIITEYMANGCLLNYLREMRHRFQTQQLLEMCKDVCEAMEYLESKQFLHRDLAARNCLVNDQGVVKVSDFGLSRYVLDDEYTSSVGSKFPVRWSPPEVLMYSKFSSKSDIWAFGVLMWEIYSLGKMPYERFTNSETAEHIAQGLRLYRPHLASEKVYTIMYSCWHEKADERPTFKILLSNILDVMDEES
UniProt Q96MD7: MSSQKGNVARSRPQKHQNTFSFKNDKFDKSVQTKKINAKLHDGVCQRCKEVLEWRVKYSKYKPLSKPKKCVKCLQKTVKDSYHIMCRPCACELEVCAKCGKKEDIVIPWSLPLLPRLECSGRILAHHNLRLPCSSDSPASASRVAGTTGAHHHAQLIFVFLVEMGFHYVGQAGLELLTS
UniProt Q05682: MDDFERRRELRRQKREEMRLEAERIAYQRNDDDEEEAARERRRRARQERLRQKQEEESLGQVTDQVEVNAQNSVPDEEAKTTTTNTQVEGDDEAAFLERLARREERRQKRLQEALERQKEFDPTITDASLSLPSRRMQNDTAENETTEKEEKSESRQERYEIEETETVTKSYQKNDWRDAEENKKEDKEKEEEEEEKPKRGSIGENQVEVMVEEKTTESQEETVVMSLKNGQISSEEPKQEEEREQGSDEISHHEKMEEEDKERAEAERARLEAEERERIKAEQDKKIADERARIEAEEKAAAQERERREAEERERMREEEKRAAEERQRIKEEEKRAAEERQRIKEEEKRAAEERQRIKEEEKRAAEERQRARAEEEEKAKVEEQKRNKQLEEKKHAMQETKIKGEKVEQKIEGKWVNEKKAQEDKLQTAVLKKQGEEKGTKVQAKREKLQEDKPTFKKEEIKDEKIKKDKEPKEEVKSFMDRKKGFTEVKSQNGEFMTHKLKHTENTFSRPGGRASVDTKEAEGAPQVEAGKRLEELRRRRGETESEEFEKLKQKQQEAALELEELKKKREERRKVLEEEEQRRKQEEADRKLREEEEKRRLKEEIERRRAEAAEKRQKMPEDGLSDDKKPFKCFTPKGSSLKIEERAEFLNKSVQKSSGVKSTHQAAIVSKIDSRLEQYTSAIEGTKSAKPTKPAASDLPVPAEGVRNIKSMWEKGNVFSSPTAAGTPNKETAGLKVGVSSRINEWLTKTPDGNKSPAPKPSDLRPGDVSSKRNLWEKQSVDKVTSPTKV
UniProt Q86VG3: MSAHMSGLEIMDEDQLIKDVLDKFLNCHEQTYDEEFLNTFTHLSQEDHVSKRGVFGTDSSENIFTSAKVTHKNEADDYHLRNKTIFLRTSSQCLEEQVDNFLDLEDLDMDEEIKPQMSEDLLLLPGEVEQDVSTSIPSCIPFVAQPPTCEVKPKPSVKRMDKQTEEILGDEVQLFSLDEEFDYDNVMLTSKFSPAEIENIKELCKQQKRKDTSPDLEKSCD
UniProt Q8TCD1: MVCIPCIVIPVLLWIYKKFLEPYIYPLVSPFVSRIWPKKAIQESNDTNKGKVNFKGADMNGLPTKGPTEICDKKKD
UniProt Q5BKX5: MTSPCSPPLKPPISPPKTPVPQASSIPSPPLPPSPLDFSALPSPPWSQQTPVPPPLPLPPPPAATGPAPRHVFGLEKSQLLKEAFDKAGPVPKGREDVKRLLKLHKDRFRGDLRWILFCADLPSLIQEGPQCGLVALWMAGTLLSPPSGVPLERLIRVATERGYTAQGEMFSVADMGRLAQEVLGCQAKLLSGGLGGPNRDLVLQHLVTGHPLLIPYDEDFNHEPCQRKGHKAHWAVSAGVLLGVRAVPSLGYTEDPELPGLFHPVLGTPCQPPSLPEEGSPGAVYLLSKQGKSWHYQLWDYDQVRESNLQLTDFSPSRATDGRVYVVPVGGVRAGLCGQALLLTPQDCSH
UniProt Q96B23: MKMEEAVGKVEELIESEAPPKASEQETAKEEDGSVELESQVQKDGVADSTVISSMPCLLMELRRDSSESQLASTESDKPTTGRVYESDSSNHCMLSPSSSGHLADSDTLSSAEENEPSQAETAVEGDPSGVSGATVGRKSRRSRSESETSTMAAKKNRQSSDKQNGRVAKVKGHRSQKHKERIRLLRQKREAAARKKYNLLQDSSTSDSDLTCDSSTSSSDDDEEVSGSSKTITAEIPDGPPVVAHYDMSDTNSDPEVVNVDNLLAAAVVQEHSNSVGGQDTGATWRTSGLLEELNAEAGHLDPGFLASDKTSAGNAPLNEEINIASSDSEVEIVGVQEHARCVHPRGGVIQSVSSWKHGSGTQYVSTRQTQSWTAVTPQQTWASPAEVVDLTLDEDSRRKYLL
UniProt P01031, whole entry, looked up: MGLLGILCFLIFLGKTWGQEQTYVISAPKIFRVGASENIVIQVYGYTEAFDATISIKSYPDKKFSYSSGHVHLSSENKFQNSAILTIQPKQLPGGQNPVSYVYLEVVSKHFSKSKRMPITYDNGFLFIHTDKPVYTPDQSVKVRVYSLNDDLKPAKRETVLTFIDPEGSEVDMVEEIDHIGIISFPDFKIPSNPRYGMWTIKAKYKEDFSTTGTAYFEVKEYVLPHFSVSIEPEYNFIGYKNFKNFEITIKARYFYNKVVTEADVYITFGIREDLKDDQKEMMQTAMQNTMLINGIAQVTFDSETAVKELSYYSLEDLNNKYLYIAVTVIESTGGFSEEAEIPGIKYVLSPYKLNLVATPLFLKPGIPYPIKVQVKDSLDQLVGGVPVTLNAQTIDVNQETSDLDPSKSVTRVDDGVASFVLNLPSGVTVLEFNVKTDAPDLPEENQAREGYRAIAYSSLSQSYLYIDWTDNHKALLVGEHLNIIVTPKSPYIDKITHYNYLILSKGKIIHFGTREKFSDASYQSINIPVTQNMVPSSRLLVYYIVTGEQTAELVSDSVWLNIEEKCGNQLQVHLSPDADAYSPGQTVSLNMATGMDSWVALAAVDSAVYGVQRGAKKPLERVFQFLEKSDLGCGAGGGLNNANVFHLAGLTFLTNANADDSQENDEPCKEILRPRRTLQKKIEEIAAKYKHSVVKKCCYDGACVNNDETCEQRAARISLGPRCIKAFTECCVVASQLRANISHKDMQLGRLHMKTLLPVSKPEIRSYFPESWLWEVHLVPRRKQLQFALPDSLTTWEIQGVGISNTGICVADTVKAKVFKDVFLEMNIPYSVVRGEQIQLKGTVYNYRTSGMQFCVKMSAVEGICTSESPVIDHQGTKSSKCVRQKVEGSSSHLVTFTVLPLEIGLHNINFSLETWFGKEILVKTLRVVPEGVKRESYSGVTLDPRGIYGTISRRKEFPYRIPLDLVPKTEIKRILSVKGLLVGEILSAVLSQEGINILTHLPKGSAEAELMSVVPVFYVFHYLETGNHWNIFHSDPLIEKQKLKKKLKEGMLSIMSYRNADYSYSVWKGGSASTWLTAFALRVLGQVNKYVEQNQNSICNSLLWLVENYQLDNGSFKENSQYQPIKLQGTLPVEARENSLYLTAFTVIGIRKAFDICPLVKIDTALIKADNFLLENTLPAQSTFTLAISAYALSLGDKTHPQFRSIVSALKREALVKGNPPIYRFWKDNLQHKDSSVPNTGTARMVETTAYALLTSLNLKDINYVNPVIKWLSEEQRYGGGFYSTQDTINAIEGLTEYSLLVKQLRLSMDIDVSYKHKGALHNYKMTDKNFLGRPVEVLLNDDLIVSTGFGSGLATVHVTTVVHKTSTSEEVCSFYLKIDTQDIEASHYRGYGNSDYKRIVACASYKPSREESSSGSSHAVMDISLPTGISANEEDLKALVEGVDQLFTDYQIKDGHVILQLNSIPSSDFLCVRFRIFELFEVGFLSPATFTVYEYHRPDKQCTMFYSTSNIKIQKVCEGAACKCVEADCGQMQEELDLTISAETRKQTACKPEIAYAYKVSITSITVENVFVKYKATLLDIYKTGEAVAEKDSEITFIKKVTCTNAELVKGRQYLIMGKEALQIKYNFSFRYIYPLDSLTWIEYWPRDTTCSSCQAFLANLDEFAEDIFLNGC
UniProt Q96L46: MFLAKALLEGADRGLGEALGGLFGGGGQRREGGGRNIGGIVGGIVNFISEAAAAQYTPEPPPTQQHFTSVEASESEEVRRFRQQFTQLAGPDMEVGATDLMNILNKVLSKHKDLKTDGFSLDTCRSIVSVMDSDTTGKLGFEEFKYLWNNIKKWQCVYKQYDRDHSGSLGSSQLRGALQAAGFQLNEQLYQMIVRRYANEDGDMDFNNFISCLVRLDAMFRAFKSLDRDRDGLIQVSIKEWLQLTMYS
UniProt Q9BXL7: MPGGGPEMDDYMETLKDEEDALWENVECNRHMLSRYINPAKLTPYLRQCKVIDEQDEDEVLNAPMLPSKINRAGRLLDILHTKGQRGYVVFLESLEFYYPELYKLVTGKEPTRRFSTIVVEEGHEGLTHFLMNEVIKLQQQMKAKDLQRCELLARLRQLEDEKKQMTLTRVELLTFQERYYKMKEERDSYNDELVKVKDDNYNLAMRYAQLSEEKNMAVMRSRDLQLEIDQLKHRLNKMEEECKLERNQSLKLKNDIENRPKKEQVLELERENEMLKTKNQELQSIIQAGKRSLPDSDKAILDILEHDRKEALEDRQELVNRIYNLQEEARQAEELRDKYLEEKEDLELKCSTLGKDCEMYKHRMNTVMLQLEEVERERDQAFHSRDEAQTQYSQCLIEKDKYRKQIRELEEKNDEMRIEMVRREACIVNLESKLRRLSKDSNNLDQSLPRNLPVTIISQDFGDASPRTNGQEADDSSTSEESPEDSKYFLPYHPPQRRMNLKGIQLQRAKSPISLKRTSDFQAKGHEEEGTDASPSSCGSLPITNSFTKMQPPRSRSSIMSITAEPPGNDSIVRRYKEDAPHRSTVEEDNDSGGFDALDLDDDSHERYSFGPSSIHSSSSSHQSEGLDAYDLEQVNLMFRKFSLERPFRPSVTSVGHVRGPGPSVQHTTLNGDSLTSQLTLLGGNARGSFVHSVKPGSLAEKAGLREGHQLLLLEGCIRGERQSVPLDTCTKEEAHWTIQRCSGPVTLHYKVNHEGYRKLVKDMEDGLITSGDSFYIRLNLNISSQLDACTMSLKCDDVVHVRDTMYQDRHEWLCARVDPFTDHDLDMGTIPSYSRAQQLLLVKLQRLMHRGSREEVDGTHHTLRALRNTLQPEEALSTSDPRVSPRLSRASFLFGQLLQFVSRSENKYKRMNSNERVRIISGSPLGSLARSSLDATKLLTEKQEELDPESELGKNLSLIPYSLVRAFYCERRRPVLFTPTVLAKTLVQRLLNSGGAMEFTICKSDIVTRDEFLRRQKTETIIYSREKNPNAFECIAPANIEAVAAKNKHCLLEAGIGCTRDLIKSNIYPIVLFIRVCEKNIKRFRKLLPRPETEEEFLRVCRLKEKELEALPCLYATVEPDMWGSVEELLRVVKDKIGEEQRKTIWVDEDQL

How the values were obtained:
Test in all cases: log2 fold change, soluble protein after heating vs DMSO (PISA); higher = thermal stabilisation; K562 cells, 10 uM, 30 min; active = over 0.2 and 3.5 SD of the protein, either way, in both replicates (recomputed)
IRAK-1-4 Inhibitor I = compound: C1COCCN1CCN2C3=CC=CC=C3N=C2NC(=O)C4=CC(=CC=C4)[N+](=O)[O-] [IRAK-1-4 Inhibitor I]
Procedure, shortened: (§1)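 Quantification of soluble protein used TMTpro 16plex LC-MS/MS, with channel sums equalised. Samples were the supernatant after 21,000xg for 90 min of pooled aliquots from K562 cells (2×10^6 cells/mL) treated with 10 μM compound for 30 min, heated for 3 min over 48°C-58°C, and extracted in PBS with 0.5% NP-40 at 4°C. Values, from duplicates, describe thermal stability against control samples on a log2 fold-change scale.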

ibrutinib = compound: C=CC(=O)N1CCC[C@@H](n2nc(-c3ccc(Oc4ccccc4)cc3)c3c(N)ncnc32)C1 [ibrutinib]
Procedure, shortened: as §1

[1] = compound: CC(=O)c1cnc2ccc(-c3cc(Cl)c(O)c(Cl)c3)nc2c1N[C@H]1CC[C@H](CN(C)C)CC1
Procedure, shortened: as §1

ralimetinib = compound: CC(C)(C)Cn1c(N)nc2ccc(-c3[nH]c(C(C)(C)C)nc3-c3ccc(F)cc3)nc21 [ralimetinib]
Procedure, shortened: as §1

[2] = compound: CC(C)(O)CC(=O)NCCn1ccc2ncnc(Nc3ccc(Oc4cccc(C(F)(F)F)c4)c(Cl)c3)c21
Procedure, shortened: as §1

[3] = compound: CC(C)C1=C2N=C(C=C(N2N=C1)NCC3=CC=CC=C3)NCCCCCCN
Procedure, shortened: as §1

[4] = compound: CC(C)C[C@@H](C=O)NC(=O)[C@H](CC(C)C)NC(=O)[C@H](CC(C)C)NC(=O)OCc1ccccc1
Procedure, shortened: as §1

pinometostat = compound: CC(C)N(C[C@H]1O[C@@H](n2cnc3c(N)ncnc32)[C@H](O)[C@@H]1O)[C@H]1C[C@@H](CCc2nc3cc(C(C)(C)C)ccc3[nH]2)C1 [pinometostat]
Procedure, shortened: as §1

[5] = compound: CC1=C(C2=C(C=C1)C(=O)C3=CC=CC=C3N2CCCN)C
Procedure, shortened: as §1

[6] = compound: CC1=C(C=C(C=C1)NC(=O)C2=CC(=CC=C2)C(C)(C)C#N)NC3=CC4=C(C=C3)N=CN(C4=O)C
Procedure, shortened: as §1

[7] = compound: CC1=C(C=C(C=C1)NC(=O)C2=CC(=CC=C2)N(C)C)NC(=O)C3=CC=C(C=C3)O
Procedure, shortened: as §1

[8] = compound: CC1=CC=C(C=C1)SC2=C3C=C(SC3=CN=C2)C(=O)N
Procedure, shortened: as §1

[9] = compound: CC1=NC(=CC=C1)C2=C(N=C(N2)C(C)(C)C)C3=CC4=NC=CN=C4C=C3
Procedure, shortened: as §1

Nexturastat A = compound: CCCCN(Cc1ccc(C(=O)NO)cc1)C(=O)Nc1ccccc1 [Nexturastat A]
Procedure, shortened: as §1

[10] = compound: CCCS(=O)(=O)Nc1ccc(F)c(C(=O)c2c[nH]c3ncc(Cl)cc23)c1F
Procedure, shortened: as §1

[11] = compound: CCCc1cc(C)[nH]c(=O)c1CNC(=O)c1cc(-c2ccnc(N3CCN(C)CC3)c2)cc2c1cnn2C(C)C
Procedure, shortened: as §1

givinostat = compound: CCN(CC)Cc1ccc2cc(COC(=O)Nc3ccc(C(=O)NO)cc3)ccc2c1 [givinostat]
Procedure, shortened: as §1

barasertib = compound: CCN(CCCOc1ccc2c(Nc3cc(CC(=O)Nc4cccc(F)c4)[nH]n3)ncnc2c1)CCOP(=O)(O)O [barasertib]
Procedure, shortened: as §1

[12] = compound: CC1=C(C(CC(=O)N1)C2=CC=C(C=C2)C(F)(F)F)C(=O)NC3=C(C=C4C(=C3)C=NN4)F
Procedure, shortened: as §1

vemurafenib = compound: CCCS(=O)(=O)Nc1ccc(F)c(C(=O)c2c[nH]c3ncc(-c4ccc(Cl)cc4)cc23)c1F [vemurafenib]
Procedure, shortened: as §1

Measured: log2 fold change

C22orf39 (UniProt Q6P5X5)
inactive: IRAK-1-4 Inhibitor I 0.12 | ibrutinib 0.033 | [1] -0.069 | ralimetinib -0.104 | [2] 0.018 | [4] 0.126 | pinometostat 0.035 | [5] 0.213 | [6] -0.033 | [7] 0.059 | [8] -0.058 | [9] -0.008 | Nexturastat A -0.024 | [10] 0.205 | [11] 0.017 | givinostat 0.044 | barasertib -0.042
active: [3] -0.587

C12orf65 (UniProt Q9H3J6)
inactive: IRAK-1-4 Inhibitor I 0.016 | ibrutinib 0.16 | [1] 0.101 | ralimetinib 0.295 | [3] 0.074 | [4] -0.052 | pinometostat 0.162 | [12] 0.007 | [6] -0.13 | [7] 0.044 | [9] -0.115 | vemurafenib -0.152 | [11] 0.076 | givinostat 0.03 | barasertib -0.206

CAPN1 (UniProt E9PLX0)
inactive: IRAK-1-4 Inhibitor I 0.126 | ibrutinib 0.071 | [3] 0.068 | pinometostat -0.081 | [6] 0.21 | [9] 0.008 | givinostat -0.064 | barasertib 0.143

C19orf12 (UniProt Q9NSK7)
inactive: ibrutinib 0.002 | [1] 0.096 | [2] -0.032 | [12] 0.08 | [5] 0.021 | [8] 0.085 | Nexturastat A 0.083 | [10] 0.046 | [11] -0.011 | barasertib -0.009

CABLES2 (UniProt Q9BTV7)
inactive: IRAK-1-4 Inhibitor I -0.034 | pinometostat 0.081 | [9] 0.065 | [11] 0.155

BTK isoform 2 (UniProt Q06187)
inactive: IRAK-1-4 Inhibitor I -0.125 | [1] -0.125 | ralimetinib 0.197 | [2] -0.011 | [3] -0.295 | [4] 0.211 | pinometostat 0.512 | [12] -0.073 | [5] -0.068 | [6] -0.053 | [7] 0.072 | [9] -0.025 | Nexturastat A 0.349 | vemurafenib 0.008 | [11] 0.02 | givinostat 0.233

C9orf85 isoform 1 (UniProt Q96MD7)
inactive: IRAK-1-4 Inhibitor I -0.073 | [1] -0.089 | [2] -0.113 | [3] 0.163 | pinometostat 0.194 | [12] 0.134 | [5] 0.037 | [6] 0.032 | [8] 0.123 | [9] -0.11 | Nexturastat A -0.06 | vemurafenib 0.04 | [10] 0.041 | [11] 0.061 | givinostat 0.029

CALD1 (UniProt Q05682)
inactive: IRAK-1-4 Inhibitor I -0.044 | ralimetinib -0.051 | [2] -0.002 | [3] -0.41 | [4] -0.183 | pinometostat 0.201 | [6] -0.02 | [7] -0.054 | [8] 0.008 | [9] 0.081 | Nexturastat A 0.039 | [10] 0.086 | givinostat 0.073

C11orf74 (UniProt Q86VG3)
inactive: IRAK-1-4 Inhibitor I 0.238 | [2] -0.018 | [3] 0.06 | pinometostat 0 | [12] -0.118 | [5] -0.231 | [6] 0.017 | [9] 0.134 | Nexturastat A 0.365 | vemurafenib 0.085 | [11] -0.119 | givinostat -0.028

C12orf73 (UniProt Q69YU5)
inactive: IRAK-1-4 Inhibitor I 0.008 | ibrutinib 0.035 | ralimetinib -0.067 | [2] -0.2 | [3] 0.064 | [4] -0.051 | pinometostat -0.034 | [12] 0.026 | [5] 0.039 | [6] -0.066 | [7] -0.005 | [8] 0.065 | [9] 0.002 | Nexturastat A -0.266 | vemurafenib -0.001 | [10] -0.031 | [11] -0.034 | givinostat -0.02 | barasertib 0.033

C18orf32 (UniProt Q8TCD1)
inactive: ibrutinib -0.01 | [1] -0.041 | ralimetinib -0.194 | [2] 0.165 | [3] 0.071 | [4] -0.132 | [12] 0.018 | [5] 0.151 | [6] 0.098 | [7] 0.001 | [8] -0.004 | Nexturastat A -0.066 | vemurafenib 0.057 | [10] -0.071 | [11] -0.038 | givinostat -0.014 | barasertib 0.02

C1orf167 isoform 2 (UniProt Q5SNV9)
inactive: IRAK-1-4 Inhibitor I 0.015 | ibrutinib -0.252 | [2] -0.044 | [3] -0.024 | pinometostat -0.035 | [12] 0.019 | [6] -0.029 | [8] -0.171 | [9] 0 | Nexturastat A 0.033 | vemurafenib -0.237 | [10] -0.241 | [11] -0.126 | givinostat -0.03 | barasertib -0.032

C1orf50 (UniProt Q9BV19)
inactive: ibrutinib -0.229 | [1] -0.113 | ralimetinib 0.016 | [2] -0.086 | [3] 0.063 | [4] 0.024 | [12] 0.054 | [5] 0.236 | [6] -0.052 | [7] -0.112 | [8] 0.007 | Nexturastat A 0.009 | vemurafenib 0.126 | [10] -0.039 | [11] 0.015 | givinostat -0.023 | barasertib -0.078

C19orf54 (UniProt Q5BKX5)
inactive: IRAK-1-4 Inhibitor I 0.008 | [1] 0.045 | ralimetinib 0.019 | [2] -0.003 | [3] -0.022 | [4] 0.08 | pinometostat -0.016 | [5] -0.054 | [6] 0.096 | [7] -0.053 | [8] 0.127 | [9] -0.104 | Nexturastat A -0.025 | vemurafenib -0.118 | [10] 0.077 | givinostat 0.044

CACTIN isoform 2 (UniProt Q8WUQ7)
inactive: IRAK-1-4 Inhibitor I -0.088 | ibrutinib -0.021 | [1] -0.311 | [2] -0.032 | [3] -0.123 | pinometostat 0.038 | [12] -0.171 | [5] 0.281 | [6] 0.076 | [8] -0.008 | [9] 0.058 | Nexturastat A 0.103 | vemurafenib -0.011 | [10] -0.035 | [11] -0.051 | givinostat 0.07 | barasertib 0.016

C18orf25 isoform 2 (UniProt Q96B23)
inactive: IRAK-1-4 Inhibitor I 0.027 | ibrutinib -0.043 | [1] -0.008 | [2] 0.048 | [3] 0.061 | pinometostat -0.06 | [12] -0.014 | [5] -0.202 | [6] 0.023 | [8] 0.004 | [9] 0.084 | Nexturastat A -0.037 | vemurafenib -0.135 | [10] 0 | [11] 0.006 | givinostat 0.061 | barasertib -0.03

C15orf41 (UniProt Q9Y2V0)
inactive: IRAK-1-4 Inhibitor I 0.105 | [1] 0.062 | ralimetinib 0.004 | [2] -0.103 | [3] -0.17 | [4] 0.11 | pinometostat 0.027 | [5] -0.117 | [6] 0.022 | [7] -0.026 | [8] -0.017 | [9] -0.002 | Nexturastat A -0.006 | vemurafenib 0.015 | [10] 0.032 | givinostat -0.012

BTN2A1 (UniProt Q7KYR7)
inactive: IRAK-1-4 Inhibitor I 0.072 | ibrutinib 0.107 | ralimetinib 0.051 | [2] 0.008 | [3] 0.052 | [4] 0.026 | pinometostat 0.025 | [12] 0.051 | [5] -0.046 | [7] -0.05 | [8] -0.029 | [9] 0.003 | Nexturastat A 0.266 | vemurafenib 0.07 | [10] -0.064 | givinostat 0.039 | barasertib -0.039

C5 (UniProt P01031)
inactive: IRAK-1-4 Inhibitor I 0.07 | [2] 0.15 | pinometostat -0.06 | [5] -0.116 | [6] -0.144 | [9] -0.111 | Nexturastat A -0.073 | vemurafenib -0.257

CAPNS2 (UniProt Q96L46)
inactive: IRAK-1-4 Inhibitor I -0.041 | ralimetinib -0.005 | [4] -0.049 | pinometostat 0.274 | [7] -0.134 | [9] -0.068 | [11] 0.132

CARD11 (UniProt Q9BXL7)
inactive: IRAK-1-4 Inhibitor I -0.033 | [1] 0.048 | [2] -0.054 | pinometostat -0.093 | [6] -0.062 | [8] 0.037 | [9] -0.042 | Nexturastat A 0.116 | [10] 0.007

CARD9 (UniProt Q9H257)
inactive: IRAK-1-4 Inhibitor I -0.181 | [1] -0.255 | ralimetinib 0.15 | [3] 0.071 | [4] 0.178 | pinometostat 0.202 | [7] -0.15 | [9] 0.052 | givinostat -0.106

Fetched one by one from the entries so far, two records:
C18orf25 isoform 2 (UniProt Q96B23)
inactive: IRAK-1-4 Inhibitor I 0.027 | ibrutinib -0.043 | [1] -0.008 | [2] 0.048 | [3] 0.061 | pinometostat -0.06 | [12] -0.014 | [5] -0.202 | [6] 0.023 | [8] 0.004 | [9] 0.084 | Nexturastat A -0.037 | vemurafenib -0.135 | [10] 0 | [11] 0.006 | givinostat 0.061 | barasertib -0.03

C12orf65 (UniProt Q9H3J6)
inactive: IRAK-1-4 Inhibitor I 0.016 | ibrutinib 0.16 | [1] 0.101 | ralimetinib 0.295 | [3] 0.074 | [4] -0.052 | pinometostat 0.162 | [12] 0.007 | [6] -0.13 | [7] 0.044 | [9] -0.115 | vemurafenib -0.152 | [11] 0.076 | givinostat 0.03 | barasertib -0.206

Continuation:

CALR3 (UniProt Q96L12)
inactive: IRAK-1-4 Inhibitor I -0.019 | pinometostat 0.052 | [9] -0.101
